Test results: PMC7961090
Results are given in words; binding and its absence hold for the method and conditions named. Binding seen in cells or lysates may run through a third protein. Some binding calls cover weakened binding; strength is not graded here.

Sequences of proteins named here, by UniProt entry; tags and fusion partners are left off. Residues count along the entry.
UniProt P36544, residues 23-502: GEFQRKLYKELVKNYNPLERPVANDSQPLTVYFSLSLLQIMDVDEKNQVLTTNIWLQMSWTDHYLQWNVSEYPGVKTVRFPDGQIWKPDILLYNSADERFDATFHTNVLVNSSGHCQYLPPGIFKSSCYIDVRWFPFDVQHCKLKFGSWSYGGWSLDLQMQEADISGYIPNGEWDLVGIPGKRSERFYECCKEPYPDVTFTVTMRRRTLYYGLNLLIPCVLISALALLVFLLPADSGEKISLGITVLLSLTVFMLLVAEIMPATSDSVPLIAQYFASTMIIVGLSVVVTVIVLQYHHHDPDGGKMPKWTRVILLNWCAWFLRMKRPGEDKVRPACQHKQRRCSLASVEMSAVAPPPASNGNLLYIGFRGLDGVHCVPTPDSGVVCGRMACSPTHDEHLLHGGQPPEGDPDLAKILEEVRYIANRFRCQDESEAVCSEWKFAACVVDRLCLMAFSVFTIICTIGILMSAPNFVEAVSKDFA

Target: human α7-nAChR-GFP receptors (human) (UniProt P36544)
Assay: co-IP; lysates of HEK293 cells with α7-nAChR-GFP incubated with 2 μM Aβ42 and 5 μM active (YEVHHQ) or inactive (SEVAAQ) Aβcore peptide for 18 h; immunoprecipitated with anti-GFP antibody; only the binder purified

- binding: binds
B1: Aβcore peptide (YEVHHQ) (peptide)
peptide: YEVHHQ
